This passage reports cell number change and AC50 results from PubChem BioAssay AID2685 (National Center for Advancing Translational Sciences (NCATS), 2010).

The other results are listed elsewhere or left out. Further columns of the screen follow, without active or inactive calls. The list favours compounds with an active or inconclusive main result. Words in brackets tell the shape of the fitted curve; partial curves, single points and poor fits give uncertain potencies.

This experiment is described as follows: qHTS Assay for Lipid Storage Modulators in Drosophila S3 Cells.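 For cell number change: cells counted by Cell Tracker Red CMTPX staining in the red channel.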 As to conditions: BODIPY lipid droplet fluorescence, 18-24 h; for cell number change: measured here: cell count max response, cells fed with added oleic acid. The procedure, abridged: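 Drosophila S3 cells loaded with oleic acid (400 uM, as added) and compounds at several concentrations; lipid droplets imaged by 488-nm laser-scanning cytometry, 500–530 nm intensity and object ratio to cell channel. Percent activity normalized to 20 uM Triacsin C.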
Background: In qHTS, concentration-response curves come from the screen itself.

Where [1] appears, read: measured here: lipid fluorescence (Fed channel) AC50, cells fed with added oleic acid.
[2] abbreviates: measured here: cell number channel AC50, cells fed with added oleic acid.

In the case of `Cc1nnc(NC(=O)c2c(F)cccc2F)s1`, the cell number change stood at 5.39%. Moreover, the AC50 – broadly, the concentration at which the activity in the assay is half-maximal – under setting [1] is 6.51 µM [falling, partial curve, poor fit].

Turning to `COc1ccc(Cn2c(SCc3ccccc3C)nc3cc(OC)c(OC)cc3c2=N)cc1`, the cell number change was -87.2%. Moreover, under setting [1], the concentration at half-maximal activity (AC50) was 29.1 µM [falling, single point].

Consider `COc1ccccc1NS(=O)(=O)c1ccc(N/N=C(\C)C(C)C)c([N+](=O)[O-])c1`, for which the cell number change is -37.6%. Under setting [2], the half-maximal activity concentration (AC50) is 18.4 µM [falling, single point]. For the same molecule, the AC50 under setting [1] was 18.4 µM [falling, single point].

Consider `CCC1=NN(C(=O)COc2ccccc2)C(O)(c2ccc(Br)cc2)C1` (centres undefined), for which the cell number change is -30%.

As to `CCCn1c(C(O)c2cccc(OC)c2)nc2ccccc21` (centres undefined), the cell number change was -1.4%.

As for `CCOc1ccccc1NC(=O)CCN(c1ccc(C)cc1)S(=O)(=O)c1ccccc1`, the cell number change was -21.6%. Under setting [1], the AC50 was 14.6 µM [falling, partial curve, poor fit].

With `CSC1=N/C(=C/c2cccnc2)C(=O)N1Cc1ccccc1`, the cell number change was determined as 0.209%. In addition, the half-maximal activity concentration (AC50) under setting [2] was 0.58 µM [rising, full curve, poor fit].

As to `CC[N+](C)(CC)CCC/C(=N/O)C(O)(c1ccccc1)c1ccccc1`, the cell number change is -18%. For the same molecule, the AC50 under setting [1] was 0.082 µM [falling, full curve].

On to `O=C(/C=C/c1ccco1)Nc1ccc2c(c1)OCCO2`, for which the cell number change came out at 7.04%. For the same molecule, the AC50 under setting [1] is 0.58 µM [falling, single point].

Regarding `CN1CCN(C(=O)CCc2nc3ccccc3n2-c2ccccc2)CC1`, the cell number change turned out to be 0.829%. Further, under setting [1], the AC50 was 16.4 µM [falling, single point].

On to `CC(C)N(CCNCC(O)COc1ccc(C(C)(C)c2ccccc2)cc1)C(C)C` (centres undefined), for which the cell number change turned out to be 8.61%.

Turning to `COc1cc2c(C#N)c(N3CCc4ccccc4C3)nc(N)c2c(N)n1`, the cell number change is -86.3%. For the same molecule, the AC50 under setting [2] was 29.1 µM [falling, single point].

Regarding `COc1ccccc1NC(=O)CNC(=O)Cn1c(C)cc2ccccc2c1=O`, the cell number change worked out at 32.5%. Moreover, the AC50 under setting [1] was 29.1 µM [rising, single point].

Take `Cc1c(Cl)cccc1NC(=O)CC1Sc2ccccc2NC1=O` (centres undefined): the cell number change was 3.91%. For the same molecule, the AC50 under setting [1] is 1.3 µM [rising, full curve, poor fit].

As for `O=S(=O)(Nc1cc(S(=O)(=O)N2CCCC2)ccc1O)c1ccc(Cl)s1`, the cell number change was -57%. Under setting [2], the AC50 was 5.8 µM [falling, full curve, poor fit].

Turning to `COc1ccc(Nc2nnc(SCC(=O)c3cc4ccccc4o3)s2)cc1`, the cell number change is -6.8%. Also, the AC50 under setting [1] was 14.6 µM [falling, partial curve].

In the case of `O=C(CSc1nnc(-c2ccccn2)n1Cc1ccco1)c1ccc(Cl)cc1`, the cell number change turned out to be 86.3%. For the same molecule, the concentration at half-maximal activity (AC50) under setting [2] was 16.4 µM [rising, partial curve].

As to `CC(=O)SC1CC2=CC(=O)CCC2(C)C2CCC3(C)C(CCC34CCC(=O)O4)C12` (centres undefined), the cell number change was -19.2%. Moreover, the AC50 under setting [2] is 0.651 µM [falling, full curve, poor fit]. In addition, under setting [1], the concentration at half-maximal activity (AC50) is 20.6 µM [falling, partial curve, poor fit].

On to `CN1CCN(C(=O)c2ccc(CSc3nc4ccncc4n3Cc3ccc(F)cc3)cc2)CC1`, for which the cell number change was determined as 12.7%. Moreover, the AC50 under setting [1] is 0.651 µM [falling, full curve, poor fit].

As for `CCOC(=O)C1CCCN(C(=O)Cc2ccc(OC)c(OC)c2)C1` (centres undefined), the cell number change came out at 14.1%. For the same molecule, the AC50 under setting [1] was 8.2 µM [rising, partial curve].

With `O=C(c1ccccc1Oc1ccc(C(F)(F)F)cc1[N+](=O)[O-])N1CCOCC1`, the cell number change was 68.7%. Moreover, under setting [2], the AC50 was 29.1 µM [rising, single point]. Further, under setting [1], the half-maximal activity concentration (AC50) is 29.1 µM [rising, single point].

As for `CCOc1ccc(C2NCCc3cc(OC)c(OC)cc32)cc1OC` (centres undefined), the cell number change is 17.8%.

Turning to `c1ccc2cc(Cn3ccnc3)ccc2c1`, the cell number change is -4.14%.

Consider `CCCC(=O)n1nc(NCc2ccc(OC)cc2)nc1NCc1ccc(OC)cc1`, for which the cell number change is -42.5%.

As for `COc1cc(C)c(-c2cc(C(=O)O)c(C)o2)cc1C(C)C`, the cell number change came out at 79.9%. The AC50 under setting [2] was 13 µM [rising, partial curve].

For the molecule `O=C(Nc1cccnc1Cl)c1cc(-c2ccc(F)cc2)on1`, under setting [1], the AC50 was 6.51 µM [rising, single point].

Turning to `Cc1nn(CC#N)c(=O)n1N(C)c1ncc(C(F)(F)F)cc1Cl`, the cell number change is -20.2%. The concentration at half-maximal activity (AC50) under setting [1] is 0.82 µM [falling, full curve].

As to `CCN(CC)C(=O)c1cccc(NC(=O)C2=COCCO2)c1`, the cell number change is -3.47%. The AC50 under setting [2] is 0.366 µM [falling, single point]. Moreover, under setting [1], the half-maximal activity concentration (AC50) is 0.259 µM [falling, full curve, poor fit].

For the molecule `COc1ccc(-n2ncc(C(=O)N3CCN(c4ccc(F)cc4)CC3)c2C)cc1`, the cell number change stood at 21.8%. For the same molecule, the AC50 under setting [2] was 0.517 µM [rising, full curve, poor fit]. Further, under setting [1], the AC50 is 0.651 µM [rising, partial curve].

As for `CC(=O)c1cccc(S(=O)(=O)Nc2cccnc2)c1`, the cell number change was 21%.

`Cc1ccc(NC(=O)NC2CCCCCCC2)cc1`: the cell number change was -22.5%. In addition, the AC50 under setting [1] is 0.103 µM [falling, full curve, poor fit].

As for `O=c1c2ccccc2nc(/C=C/c2ccccc2)n1CCCO`, the cell number change worked out at 6.94%. In addition, the AC50 under setting [1] is 29.1 µM [rising, partial curve, poor fit].

In the case of `CCCNC(=O)C1CN(S(=O)(=O)c2ccc(Cl)s2)c2ccccc2O1` (centres undefined), the cell number change was -4.16%. The AC50 under setting [1] was 29.1 µM [rising, single point].

Regarding `Cc1ccc(S(=O)(=O)N2CCN(C(=O)COC(=O)COc3ccccc3)CC2)cc1`, the cell number change stood at 46.6%. Moreover, under setting [2], the AC50 is 11.6 µM [rising, partial curve]. The AC50 under setting [1] is 13 µM [rising, partial curve].

Turning to `CCc1ccc(OCC(=O)NC(NC(=S)Nc2ccccc2)C(Cl)(Cl)Cl)cc1` (centres undefined), the cell number change was 16.2%. Moreover, the concentration at half-maximal activity (AC50) under setting [1] is 0.058 µM [rising, full curve, poor fit].

As to `COc1cc(/C=C2\SC(=Nc3ccccc3)NC2=O)cc(Cl)c1O`, the cell number change is -95.1%.

As for `COC(=O)C1(C(F)(F)F)N=C(N(C)C)OC(N(C)C)=N1`, the cell number change is -27.2%. For the same molecule, the concentration at half-maximal activity (AC50) under setting [2] was 3.66 µM [falling, full curve, poor fit]. Moreover, the AC50 under setting [1] was 3.66 µM [falling, full curve].

Take `CCCCC(=O)NC(NC(=S)N1CCCCCC1)C(Cl)(Cl)Cl` (centres undefined): the cell number change stood at 5.57%. Besides, under setting [1], the AC50 is 18.4 µM [falling, single point].

`CC(C)c1ccc(NC(=O)c2ccc3c(c2)CCN3S(C)(=O)=O)cc1`: the cell number change is 39.7%. Besides, under setting [2], the half-maximal activity concentration (AC50) is 23.1 µM [rising, single point].

`COc1ccc(OC)c(S(=O)(=O)N2CCN(C34CC5CC(CC(C5)C3)C4)CC2)c1`: the cell number change is 2.3%. The AC50 under setting [1] is 20.6 µM [rising, single point].

As for `Cc1ccc(NC(=O)c2ccccc2NC(=O)c2cccs2)cc1`, the cell number change is 25.6%.

Consider `Nc1ccc2nc(SCc3ccc([N+](=O)[O-])cc3)sc2c1`, for which the cell number change was -15.3%. Also, the AC50 under setting [1] is 6.51 µM [rising, partial curve].

With `CCCc1nnc(NC(=O)CSc2nnc(-c3ccco3)n2C)s1`, the cell number change was 24.3%.

As to `O=C(COc1ccccc1F)Nc1ccccc1C(=O)NC1CC1`, the cell number change is -8.78%. Under setting [2], the concentration at half-maximal activity (AC50) is 1.84 µM [falling, partial curve].

For the molecule `Cc1cccc2sc(NNC(=O)c3cc(=O)c4ccccc4o3)nc12`, the cell number change is 10.1%.

With `S=C(NCCN1CCOCC1)NC1CCCC1`, the cell number change was -53.9%. The AC50 under setting [2] was 20.6 µM [falling, partial curve, poor fit].

With `COc1ccccc1NC(=O)CSc1nnc(-c2ccncc2)o1`, the cell number change is -59.2%. For the same molecule, the concentration at half-maximal activity (AC50) under setting [2] is 29.1 µM [falling, single point].

In the case of `O=C(Cn1[nH]c(=O)c2ccccc2c1=O)NC1CCN(Cc2ccccc2)CC1`, the cell number change was -17.9%. Moreover, under setting [1], the half-maximal activity concentration (AC50) was 2.91 µM [falling, full curve].

Consider `O=C(CSc1nnc(C2CC2)n1Cc1ccccc1)NCc1ccccc1`, for which the cell number change was -2.06%.

With `CN1CCN(C(=O)c2cccc(S(=O)(=O)N3CCCC3)c2)CC1`, the AC50 is 0.651 µM [falling, full curve] under setting [2] and 0.731 µM [falling, full curve] under setting [1].

Regarding `COc1ccc(C(=O)Nc2ccccc2NC(=O)c2ccco2)c(OC)c1`, the cell number change worked out at 23.5%. Besides, the concentration at half-maximal activity (AC50) under setting [1] was 29.1 µM [falling, single point].

With `COc1ccc2c(c1[N+](=O)[O-])CCC/C2=N/OC(=O)c1ccccc1SC`, the cell number change was -3.63%.

`CN(Cc1ccccc1)C(=O)CCCn1c(=O)[nH]c2cc(Cl)ccc2c1=O`: the cell number change was -0.223%. Also, the AC50 under setting [2] is 3.26 µM [rising, partial curve, poor fit]. The half-maximal activity concentration (AC50) under setting [1] was 16.4 µM [falling, partial curve].

`COC(=O)c1cc(OC)c(OC)cc1NC(=S)N1CCN(C/C=C/c2ccccc2)CC1`: the cell number change worked out at 15.7%. In addition, under setting [1], the AC50 is 0.411 µM [rising, single point].

For the molecule `COc1ccc(Cl)cc1NC(=O)CN(C)C(=O)Cn1[nH]c(=O)c2ccccc2c1=O`, the cell number change is -1.46%. Under setting [1], the concentration at half-maximal activity (AC50) was 29.1 µM [rising, single point].

On to `CNC(=O)NC(=O)CSc1nnc(C(F)(F)F)n1C`, for which the cell number change was -15.1%. Further, the concentration at half-maximal activity (AC50) under setting [1] is 2.59 µM [falling, partial curve].

Turning to `COc1cccc(N2CCN(c3ccc4nnc(CCC(=O)Nc5ccc(F)cc5)n4n3)CC2)c1`, the cell number change is -3.54%.

With `C[C@@H](NC(=O)C1(c2ccccc2)CCN(C(=O)OC(C)(C)C)CC1)C(=O)N[C@@H](Cc1ccccc1)C(=O)O`, the cell number change is -26.4%. Besides, under setting [2], the AC50 was 3.26 µM [falling, full curve, poor fit]. For the same molecule, under setting [1], the AC50 was 2.31 µM [falling, partial curve].

As to `NC(=O)c1cccc([N+](=O)[O-])c1`, the cell number change is 7.31%. Also, the half-maximal activity concentration (AC50) under setting [1] is 0.00461 µM [rising, full curve, poor fit].

Take `CCc1noc(C)c1C(=O)N1CCN(S(=O)(=O)c2ccccc2C(F)(F)F)CC1`: the cell number change was 11.7%. The concentration at half-maximal activity (AC50) under setting [2] is 0.731 µM [falling, full curve]. Also, the AC50 under setting [1] was 0.411 µM [falling, single point].

As to `C/C(=N\N=C1\NC(=O)C(CC(=O)NCc2ccccc2)S1)C(C)C` (centres undefined), the cell number change was -9.97%. Under setting [2], the AC50 is 2.59 µM [falling, partial curve, poor fit].

For the molecule `Cn1cccc1CC(=O)NNC(=O)Nc1cccc(Cl)c1`, the cell number change came out at 13.1%. In addition, the concentration at half-maximal activity (AC50) under setting [1] was 0.00517 µM [rising, full curve, poor fit].
